Source: the supplement of paper PMC11237882
Some of the results follow. Values are worked out from sequencing counts and are noisy.

T1: Homer1 EVH1 domain
T1 chain: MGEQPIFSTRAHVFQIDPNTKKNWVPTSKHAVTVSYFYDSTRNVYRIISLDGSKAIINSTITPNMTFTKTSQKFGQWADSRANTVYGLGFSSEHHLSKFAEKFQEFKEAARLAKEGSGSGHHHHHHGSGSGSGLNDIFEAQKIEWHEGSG


Molecular target: T1, Homer1 EVH1 domain
Assay: enrichment score (AUC of log2 frequency ratio across FACS sorting rounds) (log2 AUC); higher = stronger enrichment for Homer1 EVH1 binding

Row | Binder | enrichment score
1 | LVRDVVSSLRRHRMHEQQFAHPPLLVLNSFGPHGMH | -0.114
2 | LWWRACWFVITPILLIAIFIWSLVQFHRPNYGAIPY | 1.14
3 | FTLLPLLTMAYLKGDLRRMWSEPFHSKSSSSRFLEV | 1.58
4 | GKGKFKGVGRSYRIAKSAAARRALRSLKAKSTSGSE | 2.45
5 | EDAYLILRRHGNLFITLFALMLTAGLPELTSVKDIQ | 0.261
6 | TLRYKKLRQPLNYILVNVSFGGFLLCIFSVFPVFVA | 0.19
7 | TCTLPLIMFMIGRKWIKSGQKVKKKRWPPERDIHIY | -0.334
8 | ISPEEEYKIACLLMVFVAVSLPTLASNVMSQYSPAI | 1.3
9 | LKPAIAEYIVKKAKQRIALQRWQDELNRRKNHKGMI | -0.0596
10 | WRKALRGKVRAAGSRAPPRTRVLGPSLLRLASPYFL | -0.0987
11 | MKAVLLALLMAGLALQPGTALLCYFCKAQVSNEDCL | 0.592
12 | MRLLWGLIWASSFFTLSLQKPRLLLFSPSVVHLEAQ | -1.99
